Measurements published in paper PMC11659164, “Inceptor binds to and directs insulin towards lysosomal degradation in β cells” (Nature Metabolism, 2024).
No constants are given. Whether binding was seen depends on the method and setting. In cells and extracts the contact can be indirect. Some binding calls cover weakened binding; strength is not graded here. Where a sequence is shown, tags or fusion partners need not be part of it.

Chains of the proteins cited; added tags and fusions are not shown. Lines headed by an entry give the natural chain unless they say otherwise; changes in a name come on top.
UniProt P01308: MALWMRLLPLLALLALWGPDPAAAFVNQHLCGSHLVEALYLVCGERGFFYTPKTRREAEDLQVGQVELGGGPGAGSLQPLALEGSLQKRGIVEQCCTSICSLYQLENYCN

Target: T1, inceptor–HaloTag fusion protein (FRET experiments, INS-1E cells) (human) (UniProt Q6UXG2)
T1 sequence (chain, HaloTag ligand tetramethylrhodamine (TMR) on the HaloTag): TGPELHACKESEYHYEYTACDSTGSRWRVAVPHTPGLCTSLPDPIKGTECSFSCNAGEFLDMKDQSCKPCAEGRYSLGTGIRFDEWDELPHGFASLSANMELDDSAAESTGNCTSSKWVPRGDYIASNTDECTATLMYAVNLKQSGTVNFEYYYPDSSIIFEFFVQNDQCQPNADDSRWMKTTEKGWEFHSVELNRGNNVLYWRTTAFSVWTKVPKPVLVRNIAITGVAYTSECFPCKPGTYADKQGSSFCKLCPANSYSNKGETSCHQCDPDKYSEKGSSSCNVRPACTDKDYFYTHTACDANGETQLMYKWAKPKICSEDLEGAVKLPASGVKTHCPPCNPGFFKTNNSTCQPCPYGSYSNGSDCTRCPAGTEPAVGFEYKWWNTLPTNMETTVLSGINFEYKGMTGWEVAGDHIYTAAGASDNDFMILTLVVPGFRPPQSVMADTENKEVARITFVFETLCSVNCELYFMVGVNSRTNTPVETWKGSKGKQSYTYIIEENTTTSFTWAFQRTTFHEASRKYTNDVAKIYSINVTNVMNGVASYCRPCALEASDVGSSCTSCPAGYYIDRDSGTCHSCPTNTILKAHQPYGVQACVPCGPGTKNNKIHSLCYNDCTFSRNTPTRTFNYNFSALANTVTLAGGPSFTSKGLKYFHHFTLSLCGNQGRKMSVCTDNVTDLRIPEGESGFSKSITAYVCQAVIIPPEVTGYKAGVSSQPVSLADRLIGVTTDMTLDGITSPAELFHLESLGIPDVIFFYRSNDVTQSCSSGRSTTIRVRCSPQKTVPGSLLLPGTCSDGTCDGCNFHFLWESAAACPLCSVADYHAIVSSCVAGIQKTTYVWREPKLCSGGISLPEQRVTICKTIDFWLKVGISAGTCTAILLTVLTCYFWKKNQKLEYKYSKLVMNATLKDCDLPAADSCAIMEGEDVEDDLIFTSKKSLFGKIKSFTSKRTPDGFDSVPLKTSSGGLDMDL
Assay: FRET or BRET; live INS-1E cells overexpressing inceptor–HaloTag labelled with TMR; 100 nmol/l INS-630 and 0, 10, 100 and 1,000 nmol/l proinsulin in the medium for 40 min; corrected FRET efficiency by confocal imaging; only the binder purified

**Q.** Which binding does the source give for “insulin–bodipy 630/650 (from UniProt P01308 25-54; P01308 90-110) (ligand)” here?
**A.** Its binding is “binds”.
